Experimental data as given in paper PMC10456741.

Molecular target: T1, HPV16 E6 oncoprotein fragment, wild type (…) (HPV16)
T1 sequence: MSCCRSSRTRRETQL
Experiment: two-hybrid; mating of Y187 (PDZ preys in pACT2-AD, Gal4 AD) with AH109 (E6 baits in pGBT9-BD, Gal4 BD); growth on SC Agar -L-W-H (HIS3 reporter), at least 72 h and up to 1 week at 30 °C or 2 weeks at room temperature

## USH1C PDZ tandem 1-2 (USH1C_1-2) from PDZome 2.0 (human) (domain or fragment)
  binding: binds

Results are given in words; binding and its absence hold for the method and conditions named. A result given as binding can be weak or reduced; the word gives no strength.
